Assay [1] has as its target PD-L1 molecules (ELISA antigen of Example 1) (human) (UniProt Q9NZQ7). Briefly: ELISA, subclone supernatant, binding to PD-L1. (ELISA stands for enzyme-linked immunosorbent assay.)
The target in assay [2] is TIGIT-his (extracellular region of human TIGIT protein fused with his) (human) (UniProt Q495A1). The assay can be described thus: ELISA, subclone supernatant, binding to TIGIT.
Assay [3] has the same target. Briefly: BLI, Fortebio Octet RED96.

Chains of the proteins cited; added tags and fusions are not shown. Lines headed by an entry give the natural chain unless they say otherwise; changes in a name come on top.
UniProt Q9NZQ7: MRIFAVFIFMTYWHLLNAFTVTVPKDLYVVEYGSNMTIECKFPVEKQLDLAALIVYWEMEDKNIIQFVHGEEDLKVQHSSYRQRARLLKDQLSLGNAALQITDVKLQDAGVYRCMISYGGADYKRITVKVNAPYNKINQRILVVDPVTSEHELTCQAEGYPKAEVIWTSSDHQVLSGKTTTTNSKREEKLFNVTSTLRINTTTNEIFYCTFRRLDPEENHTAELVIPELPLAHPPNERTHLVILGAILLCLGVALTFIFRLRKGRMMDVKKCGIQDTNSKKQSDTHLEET
UniProt Q495A1: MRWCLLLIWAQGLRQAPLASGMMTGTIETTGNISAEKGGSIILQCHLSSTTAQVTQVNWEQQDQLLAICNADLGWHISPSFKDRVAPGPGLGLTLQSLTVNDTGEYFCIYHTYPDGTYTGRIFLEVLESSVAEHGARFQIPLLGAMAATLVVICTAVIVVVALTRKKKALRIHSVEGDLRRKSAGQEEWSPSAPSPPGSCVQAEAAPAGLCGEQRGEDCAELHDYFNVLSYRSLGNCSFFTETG

Our source for the binding values is US20240262915A1.

These are yes or no findings as the source states them, for the method shown. Some results given as binding are weak or reduced against the parent protein; the word gives no strength.

B1: SHS009PL-18 (antibody, V domains shown)
VH: QVQLQQPGAELVRPGTSVNLSCKASGYSFTSNWMNWVKQRPGQGLEWIGMIHLYDSETKLNPNFQDKATLTVDKSSSIAYMQLSSPTSEDSAVYYCARSAGNYRFAYWGQGTLVTVSA
VL: SIVMTQTPKFLPVTAEDRVTITCKASQSVSNEVAWYQQKPGQSPKLLIYSASSRYTGVPDRFIGGGSATDFTFTISSVQVEDLAVYFCQQHYSSPLTFGAGTKLELK
As to B1, the binding result in assay [1] is recorded as “binds”.

B2: SHS006-23 (antibody, V domains shown)
VH: EVQLVESEGGLVQPGASVKLSCVGSGFSFSDHWMSWVRQTPGKTMEWIGNIQYDGSYTNYAPSLKNRFTISRDNAKNTLYLQMTNLRSEDTATYYCTRGHFRITMASMGASASVYWGQGVMVTVSS
VL: DIQMTQSPSSLPTSLGDRVTITCRTSQDIGNSLRWFQQKPGKSPRLMIHGATNLANGVPSRFSGSRAGSDYSLTINSLESEDMAMYYCLQHNEYPLTFGSGTKLEIK
For B2, the binding entry in assay [2] is listed as “binds”.

B3: HuPL1642-T2353-ScFab (bispecific antibody, human IgG4 S228P, kappa)
chain 1: DIQMTQSPSSLSASVGDRVTITCRTSQDIGNSLRWFQQKPGKAPKLLIHGATNLANGVPSRFSGSGSGTDFTLTISSLQPEDFATYYCLQHNEYPLTFGCGTKLEIKRTVAAPSVFIFPPSDEQLKSGTASVVCLLNNFYPREAKVQWKVDNALQSGNSQESVTEQDSKDSTYSLSSTLTLSKADYEKHKVYACEVTHQGLSSPVTKSFNRGECGGGGSGGGGSGGGGSGGGGSGGGGSGGGGSGGGGSGGGGSEVQLVESGGGLVQPGGSLRLSCAASGFTFSDHWMSWVRQAPGKCMEWIGNIQYDGSYTNYAPSLKNRFTISRDNAKNSLYLQMNSLRAEDTATYYCTRGHFRITMASMGASASVYWGQGTMVTVSSASTKGPSVFPLAPCSRSTSESTAALGCLVKDYFPEPVTVSWNSGALTSGVHTFPAVLQSSGLYSLSSVVTVPSSSLGTKTYTCNVDHKPSNTKVDKRVESKYGPPCPPCPAPEFLGGPSVFLFPPKPKDTLMISRTPEVTCVVVDVSQEDPEVQFNWYVDGVEVHNAKTKPREEQFNSTYRVVSVLTVLHQDWLNGKEYKCKVSNKGLPSSIEKTISKAKGQPREPQVYTLPPCQEEMTKNQVSLWCLVKGFYPSDIAVEWESNGQPENNYKTTPPVLDSDGSFFLYSRLTVDKSRWQEGNVFSCSVMHEALHNHYTQKSLSLSLGK
chain 2: DIVMTQSPDSLAVSLGERVTMRCKSSQSLSWSENQNNYLSWYQQKPGQPPKLLIYGASIRESGVPDRFSGSGSGTDFTLTISSVQAEDVGVYYCQHNHGSFLPYTFGCGTKLEIKRTVAAPSVFIFPPSDEQLKSGTASVVCLLNNFYPREAKVQWKVDNALQSGNSQESVTEQDSKDSTYSLSSTLTLSKADYEKHKVYACEVTHQGLSSPVTKSFNRGECGGGGSGGGGSGGGGSGGGGSGGGGSGGGGSGGGGSGGGGSQVQLVQSGAEVAKPGASVKMSCKASGYTFTRNTMHWIKQAPGQCLEWIGFIDPHNTYTRYNQKFKDRATLTADTSASTAYMELSSLRSEDTAVYYCARWPMDYWGQGTLVTVSSASTKGPSVFPLAPCSRSTSESTAALGCLVKDYFPEPVTVSWNSGALTSGVHTFPAVLQSSGLYSLSSVVTVPSSSLGTKTYTCNVDHKPSNTKVDKRVESKYGPPCPPCPAPEFLGGPSVFLFPPKPKDTLMISRTPEVTCVVVDVSQEDPEVQFNWYVDGVEVHNAKTKPREEQFNSTYRVVSVLTVLHQDWLNGKEYKCKVSNKGLPSSIEKTISKAKGQPREPQVCTLPPSQEEMTKNQVSLSCAVKGFYPSDIAVEWESNGQPENNYKTTPPVLDSDGSFFLVSRLTVDKSRWQEGNVFSCSVMHEALHNHYTQKSLSLSLGK
For the molecule B3, in assay [3], the binding result is on record as “binds”.

B4: SHS006-17 (antibody, V domains shown)
VH: QVTLKESGPGILQPSQTLSLTCTFSGFSLRTYGLGVGWIRQLSGKGLEWLANIWWDDDEYYNPSLKNRLTISKDTSNNQAFLKITNVDTADTATYYCARIARPHYYWDGRYILDVWGQGASVTVSS
VL: DIMMTQSPLSVAVTPGESASISCRSSKSLLHSNGITYLSWYLQRPEKSPQLLIFQISNLASGVSDRFSGSGSGTDFTLIISKVETEDVGIYYCMQFLEVPYTFGAGTKLELK
B4: the binding entry in assay [2] was “binds”.

B5: SHS009PL-16 (antibody, V domains shown)
VH: QVQLQQSGAELARPGASVKMSCKASGYTFTRNTMHWIKQRPGQGLEWIGFIDPHNTYTRYNQKFKDRATLTADKSSSTAYMQLSSLSSEDSAVYYCARWPMDYWGQGTSVTVSS
VL: DIVMTQFPSSLAVTAGEKVTMRCKSSQSLSWSENQNNYLSWYQQKQGQPPKLLIYGASIRESWVPDRFTGSGSGTDFTLTISNVHAEDLGVYFCQHNHGSFLPYTFGGGTKLEIK
In the case of B5, the binding entry in assay [1] is reported as “binds”.

B6: SHS009PL-15 (antibody, V domains shown)
VH: EVQLQESGPGLAKPSQTLSLTCSVTGYSITSDYWNWIRKFPGNKLEYMGYISYTGSTYYNPSLKRRVSITRDTSKNNYYLQLNSVTTEDTATYYCARYRDWPGYFDVWGAGTTVTVSS
VL: DVQITQSPSYLAASPGETITINCRASKSIRKFLAWYQEKPGKTNKLLIYSGSTLQSGIPSRFSGSGSGTDFTLTISTLEPEDFAVYYCQHYNEYPFTFGGGTKLEIK
In the case of B6, the binding result in assay [1] is listed as “binds”.

B7: SHS006-T-Hu23-53 (antibody, IgG4, V domains shown)
VH: EVQLVESGGGLVQPGGSLRLSCAASGFTFSDHWMSWVRQAPGKTMEWIGNIQYDGSYTNYAPSLKNRFTISRDNAKNSLYLQMNSLRAEDTATYYCTRGHFRITMASMGASASVYWGQGTMVTVSS
VL: DIQMTQSPSSLSASVGDRVTITCRTSQDIGNSLRWFQQKPGKAPKLLIHGATNLANGVPSRFSGSGSGTDFTLTISSLQPEDFATYYCLQHNEYPLTFGQGTKLEIK
As for B7, the binding result in assay [3] is “binds”.

B8: SHS006-T-Hu17-31 (antibody, IgG4, V domains shown)
VH: QVTLKESGPVLVKPTETLTLTCTFSGFSLRTYGLGVGWIRQPPGKALEWLANIWWDDDEYYNPSLKNRLTISKDTSKSQAVLTMTNMDPVDTATYYCARIARPHYYWDGRYILDVWGQGTTVTVSS
VL: DIVMTQSPLSLPVTPGEPASISCRSSKSLLHSNGITYLSWYLQKPGQSPQLLIYQISNLASGVPDRFSGSGSGTDFTLKISRVEAEDVGVYYCMQFLEVPYTFGQGTKLEIK
On to B8, for which the binding entry in assay [3] is “binds”.
